Experimental findings from paper PMC4148193, “Chromatin Insulator Factors Involved in Long-Range DNA Interactions and Their Role in the Folding of the Drosophila Genome” (PLoS Genetics, 2014) are described below.

These are yes or no findings as the source states them, for the method shown. Some results given as binding are weak or reduced against the parent protein; the word gives no strength. Tags and fused reporters may be left off the sequences shown.

For the test, the target named is CP190-BTB/POZ (BTB/POZ domain of CP190), His-tagged (Drosophila) (UniProt Q24478). Kind of test: crystal structure; CP190-BTB/POZ; 0.8 M NaH2PO4, 0.8 M KH2PO4, 0.1 M Hepes pH 7.5; space group P3_(2)21; molecular replacement; both purified.

B1: CP190-BTB/POZ (BTB/POZ domain of CP190), His-tagged (domain or fragment, Drosophila)
chain: MGEVKSVKVDNWGVFFLQKLQNFFNKTDYCDLTLQFRDNSQLKVHRLVLSACTDYFNVLEQTCEIVDDALIMPNEFQADVVVPIVNFMYTGTLEFELKMYGKLLRTAKEMNMTVLLKLLEAHRRTMENVNRQQR
notes: N-terminal BTB/POZ domain of CP190, Drosophila; source: E. coli BL21 (DE3)-pLysS, purified
For B1, the binding entry is on record as “binds”.
